We go through one substance from article PMC11705050.

By UniProt entry, the sequences of proteins in these tests, tags left out.
UniProt P17844: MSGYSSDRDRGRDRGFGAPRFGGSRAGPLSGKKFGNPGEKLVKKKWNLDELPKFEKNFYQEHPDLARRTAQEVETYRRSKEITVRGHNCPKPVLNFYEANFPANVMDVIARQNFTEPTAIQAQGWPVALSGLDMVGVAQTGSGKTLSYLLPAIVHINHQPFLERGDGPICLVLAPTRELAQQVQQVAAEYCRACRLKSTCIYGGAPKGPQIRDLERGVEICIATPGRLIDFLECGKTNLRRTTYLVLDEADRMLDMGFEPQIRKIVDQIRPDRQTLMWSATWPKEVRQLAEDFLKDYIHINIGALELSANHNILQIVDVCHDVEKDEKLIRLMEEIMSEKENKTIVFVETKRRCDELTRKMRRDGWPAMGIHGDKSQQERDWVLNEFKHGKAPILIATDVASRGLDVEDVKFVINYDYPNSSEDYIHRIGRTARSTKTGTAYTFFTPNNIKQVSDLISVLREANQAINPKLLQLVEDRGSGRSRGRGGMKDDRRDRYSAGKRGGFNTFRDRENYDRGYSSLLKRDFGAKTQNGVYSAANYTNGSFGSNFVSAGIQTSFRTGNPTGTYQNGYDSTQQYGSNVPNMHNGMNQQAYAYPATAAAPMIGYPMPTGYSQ
UniProt P35222: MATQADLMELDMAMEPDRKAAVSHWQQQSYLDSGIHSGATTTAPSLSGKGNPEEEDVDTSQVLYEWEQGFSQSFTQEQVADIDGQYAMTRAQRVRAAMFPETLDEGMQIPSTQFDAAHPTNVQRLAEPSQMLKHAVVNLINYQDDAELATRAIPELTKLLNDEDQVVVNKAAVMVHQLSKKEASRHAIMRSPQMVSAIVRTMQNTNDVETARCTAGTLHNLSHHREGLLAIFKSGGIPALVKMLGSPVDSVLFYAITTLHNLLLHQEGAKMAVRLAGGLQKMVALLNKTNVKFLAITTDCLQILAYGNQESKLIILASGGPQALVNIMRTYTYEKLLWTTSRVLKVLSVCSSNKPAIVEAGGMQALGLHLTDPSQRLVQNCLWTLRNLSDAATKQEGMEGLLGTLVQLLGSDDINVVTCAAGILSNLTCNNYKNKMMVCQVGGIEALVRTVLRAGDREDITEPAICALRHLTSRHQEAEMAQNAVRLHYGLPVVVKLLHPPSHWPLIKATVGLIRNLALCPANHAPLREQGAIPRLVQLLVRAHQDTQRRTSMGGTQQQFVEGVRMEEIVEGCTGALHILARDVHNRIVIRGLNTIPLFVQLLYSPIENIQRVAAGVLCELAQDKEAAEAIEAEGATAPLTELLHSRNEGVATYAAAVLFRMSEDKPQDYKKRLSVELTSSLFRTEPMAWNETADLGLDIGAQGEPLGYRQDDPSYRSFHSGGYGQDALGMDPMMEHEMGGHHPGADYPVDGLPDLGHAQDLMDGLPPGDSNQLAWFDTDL

No constants are given. Whether binding was seen depends on the method and setting. Binding seen in cells or lysates may run through a third protein. Some binding calls cover weakened binding; strength is not graded here.

The target in the test is DDX5 (human (endogenous in 5637 and SW780)) (UniProt P17844). In words: co-IP; anti-DDX5 antibody incubated with lysates of 5637 and SW780 cells (immunoprecipitation lysis buffer with PMSF) at 4°C overnight; complexes enriched with magnetic beads, analysed by western blot. (In general: Immunoblotting shows a protein as a band on a membrane.)

Turning to β-catenin (from UniProt P35222 1-781), the binding entry is “binds”.
